Data on nine molecules can be found in patent US12419871B2, “Biomolecules involved in Alzheimer's disease” (ELECTROPHORETICS LIMITED, priority 2015, dated 2025).

A short description of the data set: TMTcalibrator quantification of regulated proteins in AD CSF versus control. Set-up: species or system human. The note with it: CSF of AD patient versus control; non-modified peptides of each protein summed for three control and three AD cases.

B1: Q96KN2 (protein, UniProt Q96KN2 1-507, looked up)
chain: MDPKLGRMAASLLAVLLLLLERGMFSSPSPPPALLEKVFQYIDLHQDEFVQTLKEWVAIESDSVQPVPRFRQELFRMMAVAADTLQRLGARVASVDMGPQQLPDGQSLPIPPVILAELGSDPTKGTVCFYGHLDVQPADRGDGWLTDPYVLTEVDGKLYGRGATDNKGPVLAWINAVSAFRALEQDLPVNIKFIIEGMEEAGSVALEELVEKEKDRFFSGVDYIVISDNLWISQRKPAITYGTRGNSYFMVEVKCRDQDFHSGTFGGILHEPMADLVALLGSLVDSSGHILVPGIYDEVVPLTEEEINTYKAIHLDLEEYRNSSRVEKFLFDTKEEILMHLWRYPSLSIHGIEGAFDEPGTKTVIPGRVIGKFSIRLVPHMNVSAVEKQVTRHLEDVFSKRNSSNKMVVSMTLGLHPWIANIDDTQYLAAKRAIRTVFGTEPDMIRDGSTIPIAKMFQEIVHKSVVLIPLGAVDDGEHSQNEKINRWNYIEGTKLFAAFFLEMAQLH
modifications: full-length
In the case of B1, the “Log2 AD/Control” value was found to be 0.71.

B2: Q8WXS3 (protein, UniProt Q8WXS3 1-145, looked up)
chain: MGCGGSRADAIEPRYYESWTRETESTWLTYTDSDAPPSAAAPDSGPEAGGLHSGMLEDGLPSNGVPRSTAPGGIPNPEKKTNCETQCPNPQSLSSGPLTQKQNGLQTTEAKRDAKRMPAKEVTINVTDSIQQMDRSRRITKNCVN
modifications: full-length
B2: the “Log2 AD/Control” value worked out at 0.88.

B3: P17858 (protein, UniProt P17858 1-780, looked up)
chain: MAAVDLEKLRASGAGKAIGVLTSGGDAQGMNAAVRAVTRMGIYVGAKVFLIYEGYEGLVEGGENIKQANWLSVSNIIQLGGTIIGSARCKAFTTREGRRAAAYNLVQHGITNLCVIGGDGSLTGANIFRSEWGSLLEELVAEGKISETTARTYSHLNIAGLVGSIDNDFCGTDMTIGTDSALHRIMEVIDAITTTAQSHQRTFVLEVMGRHCGYLALVSALASGADWLFIPEAPPEDGWENFMCERLGETRSRGSRLNIIIIAEGAIDRNGKPISSSYVKDLVVQRLGFDTRVTVLGHVQRGGTPSAFDRILSSKMGMEAVMALLEATPDTPACVVTLSGNQSVRLPLMECVQMTKEVQKAMDDKRFDEATQLRGGSFENNWNIYKLLAHQKPPKEKSNFSLAILNVGAPAAGMNAAVRSAVRTGISHGHTVYVVHDGFEGLAKGQVQEVGWHDVAGWLGRGGSMLGTKRTLPKGQLESIVENIRIYGIHALLVVGGFEAYEGVLQLVEARGRYEELCIVMCVIPATISNNVPGTDFSLGSDTAVNAAMESCDRIKQSASGTKRRVFIVETMGGYCGYLATVTGIAVGADAAYVFEDPFNIHDLKVNVEHMTEKMKTDIQRGLVLRNEKCHDYYTTEFLYNLYSSEGKGVFDCRTNVLGHLQQGGAPTPFDRNYGTKLGVKAMLWLSEKLREVYRKGRVFANAPDSACVIGLKKKAVAFSPVTELKKDTDFEHRMPREQWWLSLRLMLKMLAQYRISMAAYVSGELEHVTRRTLSMDKGF
modifications: full-length
Consider B3, for which the “Log2 AD/Control” value turned out to be 0.68.

B4: P35612 (protein, UniProt P35612 1-726, looked up)
chain: MSEETVPEAASPPPPQGQPYFDRFSEDDPEYMRLRNRAADLRQDFNLMEQKKRVTMILQSPSFREELEGLIQEQMKKGNNSSNIWALRQIADFMASTSHAVFPTSSMNVSMMTPINDLHTADSLNLAKGERLMRCKISSVYRLLDLYGWAQLSDTYVTLRVSKEQDHFLISPKGVSCSEVTASSLIKVNILGEVVEKGSSCFPVDTTGFCLHSAIYAARPDVRCIIHLHTPATAAVSAMKWGLLPVSHNALLVGDMAYYDFNGEMEQEADRINLQKCLGPTCKILVLRNHGVVALGDTVEEAFYKIFHLQAACEIQVSALSSAGGVENLILLEQEKHRPHEVGSVQWAGSTFGPMQKSRLGEHEFEALMRMLDNLGYRTGYTYRHPFVQEKTKHKSEVEIPATVTAFVFEEDGAPVPALRQHAQKQQKEKTRWLNTPNTYLRVNVADEVQRSMGSPRPKTTWMKADEVEKSSSGMPIRIENPNQFVPLYTDPQEVLEMRNKIREQNRQDVKSAGPQSQLLASVIAEKSRSPSTESQLMSKGDEDTKDDSEETVPNPFSQLTDQELEEYKKEVERKKLELDGEKETAPEEPGSPAKSAPASPVQSPAKEAETKSPLVSPSKSLEEGTKKTETSKAATTEPETTQPEGVVVNGREEEQTAEEILSKGLSQMTTSADTDVDTSKDKTESVTSGPMSPEGSPSKSPSKKKKKFRTPSFLKKSKKKEKVES
modifications: full-length
With B4, the “Log2 AD/Control” value turned out to be 0.77.

B5: P11274 (protein, UniProt P11274 1-1271, looked up)
chain: MVDPVGFAEAWKAQFPDSEPPRMELRSVGDIEQELERCKASIRRLEQEVNQERFRMIYLQTLLAKEKKSYDRQRWGFRRAAQAPDGASEPRASASRPQPAPADGADPPPAEEPEARPDGEGSPGKARPGTARRPGAAASGERDDRGPPASVAALRSNFERIRKGHGQPGADAEKPFYVNVEFHHERGLVKVNDKEVSDRISSLGSQAMQMERKKSQHGAGSSVGDASRPPYRGRSSESSCGVDGDYEDAELNPRFLKDNLIDANGGSRPPWPPLEYQPYQSIYVGGMMEGEGKGPLLRSQSTSEQEKRLTWPRRSYSPRSFEDCGGGYTPDCSSNENLTSSEEDFSSGQSSRVSPSPTTYRMFRDKSRSPSQNSQQSFDSSSPPTPQCHKRHRHCPVVVSEATIVGVRKTGQIWPNDGEGAFHGDADGSFGTPPGYGCAADRAEEQRRHQDGLPYIDDSPSSSPHLSSKGRGSRDALVSGALESTKASELDLEKGLEMRKWVLSGILASEETYLSHLEALLLPMKPLKAAATTSQPVLTSQQIETIFFKVPELYEIHKEFYDGLFPRVQQWSHQQRVGDLFQKLASQLGVYRAFVDNYGVAMEMAEKCCQANAQFAEISENLRARSNKDAKDPTTKNSLETLLYKPVDRVTRSTLVLHDLLKHTPASHPDHPLLQDALRISQNFLSSINEEITPRRQSMTVKKGEHRQLLKDSFMVELVEGARKLRHVFLFTDLLLCTKLKKQSGGKTQQYDCKWYIPLTDLSFQMVDELEAVPNIPLVPDEELDALKIKISQIKNDIQREKRANKGSKATERLKKKLSEQESLLLLMSPSMAFRVHSRNGKSYTFLISSDYERAEWRENIREQQKKCFRSFSLTSVELQMLTNSCVKLQTVHSIPLTINKEDDESPGLYGFLNVIVHSATGFKQSSNLYCTLEVDSFGYFVNKAKTRVYRDTAEPNWNEEFEIELEGSQTLRILCYEKCYNKTKIPKEDGESTDRLMGKGQVQLDPQALQDRDWQRTVIAMNGIEVKLSVKFNSREFSLKRMPSRKQTGVFGVKIAVVTKRERSKVPYIVRQCVEEIERRGMEEVGIYRVSGVATDIQALKAAFDVNNKDVSVMMSEMDVNAIAGTLKLYFRELPEPLFTDEFYPNFAEGIALSDPVAKESCMLNLLLSLPEANLLTFLFLLDHLKRVAEKEAVNKMSLHNLATVFGPTLLRPSEKESKLPANPSQPITMTDSWSLEVMSQVQVLLYFLQLEAIPAPDSKRQSILFSTEV
modifications: full-length
Consider B5, for which the “Log2 AD/Control” value was 0.99.

B6: Q96BJ3 (protein, UniProt Q96BJ3 1-306, looked up)
chain: MSEVTRSLLQRWGASFRRGADFDSWGQLVEAIDEYQILARHLQKEAQAQHNNSEFTEEQKKTIGKIATCLELRSAALQSTQSQEEFKLEDLKKLEPILKNILTYNKEFPFDVQPVPLRRILAPGEEENLEFEEDEEEGGAGAGSPDSFPARVPGTLLPRLPSEPGMTLLTIRIEKIGLKDAGQCIDPYITVSVKDLNGIDLTPVQDTPVASRKEDTYVHFNVDIELQKHVEKLTKGAAIFFEFKHYKPKKRFTSTKCFAFMEMDEIKPGPIVIELYKKPTDFKRKKLQLLTKKPLYLHLHQTLHKE
modifications: full-length
For B6, the “Log2 AD/Control” value came out at 0.98.

B7: P17174 (protein, UniProt P17174 1-413, looked up)
chain: MAPPSVFAEVPQAQPVLVFKLTADFREDPDPRKVNLGVGAYRTDDCHPWVLPVVKKVEQKIANDNSLNHEYLPILGLAEFRSCASRLALGDDSPALKEKRVGGVQSLGGTGALRIGADFLARWYNGTNNKNTPVYVSSPTWENHNAVFSAAGFKDIRSYRYWDAEKRGLDLQGFLNDLENAPEFSIVVLHACAHNPTGIDPTPEQWKQIASVMKHRFLFPFFDSAYQGFASGNLERDAWAIRYFVSEGFEFFCAQSFSKNFGLYNERVGNLTVVGKEPESILQVLSQMEKIVRITWSNPPAQGARIVASTLSNPELFEEWTGNVKTMADRILTMRSELRARLEALKTPGTWNHITDQIGMFSFTGLNPKQVEYLVNEKHIYLLPSGRINVSGLTTKNLDYVATSIHEAVTKIQ
modifications: full-length
Consider B7, for which the “Log2 AD/Control” value stood at 0.99.

B8: P07686 (protein, UniProt P07686 1-556, looked up)
chain: MELCGLGLPRPPMLLALLLATLLAAMLALLTQVALVVQVAEAARAPSVSAKPGPALWPLPLLVKMTPNLLHLAPENFYISHSPNSTAGPSCTLLEEAFRRYHGYIFGFYKWHHEPAEFQAKTQVQQLLVSITLQSECDAFPNISSDESYTLLVKEPVAVLKANRVWGALRGLETFSQLVYQDSYGTFTINESTIIDSPRFSHRGILIDTSRHYLPVKIILKTLDAMAFNKFNVLHWHIVDDQSFPYQSITFPELSNKGSYSLSHVYTPNDVRMVIEYARLRGIRVLPEFDTPGHTLSWGKGQKDLLTPCYSRQNKLDSFGPINPTLNTTYSFLTTFFKEISEVFPDQFIHLGGDEVEFKCWESNPKIQDFMRQKGFGTDFKKLESFYIQKVLDIIATINKGSIVWQEVFDDKAKLAPGTIVEVWKDSAYPEELSRVTASGFPVILSAPWYLDLISYGQDWRKYYKVEPLDFGGTQKQKQLFIGGEACLWGEYVDATNLTPRLWPRASAVGERLWSSKDVRDMDDAYDRLTRHRCRMVERGIAAQPLYAGYCNHENM
modifications: full-length
As to B8, the “Log2 AD/Control” value is listed as 1.49.

B9: P02749 (protein, UniProt P02749 1-345, looked up)
chain: MISPVLILFSSFLCHVAIAGRTCPKPDDLPFSTVVPLKTFYEPGEEITYSCKPGYVSRGGMRKFICPLTGLWPINTLKCTPRVCPFAGILENGAVRYTTFEYPNTISFSCNTGFYLNGADSAKCTEEGKWSPELPVCAPIICPPPSIPTFATLRVYKPSAGNNSLYRDTAVFECLPQHAMFGNDTITCTTHGNWTKLPECREVKCPFPSRPDNGFVNYPAKPTLYYKDKATFGCHDGYSLDGPEEIECTKLGNWSAMPSCKASCKVPVKKATVVYQGERVKIQEKFKNGMLHGDKVSFFCKNKEKKCSYTEDAQCIDGTIEVPKCFKEHSSLAFWKTDASDVKPC
modifications: full-length
Turning to B9, the “Log2 AD/Control” value was −0.70.
